Earlier results on one compound are cited in paper PMC4880976, “Pharmacologic rationale for the NK1R antagonist, aprepitant as adjunctive therapy in HIV” (Journal of Translational Medicine, 2016).

The conditions of the data set: Table 1, reference not given; cited from earlier work.

In the case of `CN1C(=O)CN=C(c2ccccc2)c2cc(Cl)ccc21` [Diazepam], the Effective plasma concentrations entry is recorded as “Effective plasma concentrations 150–400 ng/mL”.
